# Measurements as given in ChEMBL document CHEMBL2218924, “A broad activity screen in support of a chemogenomic map for kinase signalling research and drug discovery” (Biochem J, 2013).
# Amino acid sequences for entries named in this document (tags omitted). A change or cut given only in a name is not applied to a line headed by its entry.
# UniProt P22455, whole entry, looked up: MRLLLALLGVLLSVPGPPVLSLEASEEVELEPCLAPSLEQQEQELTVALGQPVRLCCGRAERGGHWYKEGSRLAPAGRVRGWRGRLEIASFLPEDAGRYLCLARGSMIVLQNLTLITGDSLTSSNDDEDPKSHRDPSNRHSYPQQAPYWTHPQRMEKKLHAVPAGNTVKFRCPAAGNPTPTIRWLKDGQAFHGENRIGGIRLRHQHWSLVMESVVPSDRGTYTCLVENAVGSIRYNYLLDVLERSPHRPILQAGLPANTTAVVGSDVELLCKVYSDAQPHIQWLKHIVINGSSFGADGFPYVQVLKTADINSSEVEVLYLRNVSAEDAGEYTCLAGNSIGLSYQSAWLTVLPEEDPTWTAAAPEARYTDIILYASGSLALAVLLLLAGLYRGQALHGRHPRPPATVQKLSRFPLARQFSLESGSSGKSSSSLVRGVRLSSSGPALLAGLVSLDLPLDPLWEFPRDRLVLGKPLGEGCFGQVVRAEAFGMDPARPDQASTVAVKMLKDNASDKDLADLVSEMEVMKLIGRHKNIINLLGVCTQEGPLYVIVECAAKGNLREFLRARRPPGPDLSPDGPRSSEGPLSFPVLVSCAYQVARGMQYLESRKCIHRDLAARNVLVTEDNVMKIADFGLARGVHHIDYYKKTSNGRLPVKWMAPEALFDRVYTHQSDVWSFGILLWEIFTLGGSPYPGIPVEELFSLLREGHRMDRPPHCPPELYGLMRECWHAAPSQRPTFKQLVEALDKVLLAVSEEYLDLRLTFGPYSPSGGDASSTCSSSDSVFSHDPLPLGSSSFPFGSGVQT
# UniProt P36888, whole entry: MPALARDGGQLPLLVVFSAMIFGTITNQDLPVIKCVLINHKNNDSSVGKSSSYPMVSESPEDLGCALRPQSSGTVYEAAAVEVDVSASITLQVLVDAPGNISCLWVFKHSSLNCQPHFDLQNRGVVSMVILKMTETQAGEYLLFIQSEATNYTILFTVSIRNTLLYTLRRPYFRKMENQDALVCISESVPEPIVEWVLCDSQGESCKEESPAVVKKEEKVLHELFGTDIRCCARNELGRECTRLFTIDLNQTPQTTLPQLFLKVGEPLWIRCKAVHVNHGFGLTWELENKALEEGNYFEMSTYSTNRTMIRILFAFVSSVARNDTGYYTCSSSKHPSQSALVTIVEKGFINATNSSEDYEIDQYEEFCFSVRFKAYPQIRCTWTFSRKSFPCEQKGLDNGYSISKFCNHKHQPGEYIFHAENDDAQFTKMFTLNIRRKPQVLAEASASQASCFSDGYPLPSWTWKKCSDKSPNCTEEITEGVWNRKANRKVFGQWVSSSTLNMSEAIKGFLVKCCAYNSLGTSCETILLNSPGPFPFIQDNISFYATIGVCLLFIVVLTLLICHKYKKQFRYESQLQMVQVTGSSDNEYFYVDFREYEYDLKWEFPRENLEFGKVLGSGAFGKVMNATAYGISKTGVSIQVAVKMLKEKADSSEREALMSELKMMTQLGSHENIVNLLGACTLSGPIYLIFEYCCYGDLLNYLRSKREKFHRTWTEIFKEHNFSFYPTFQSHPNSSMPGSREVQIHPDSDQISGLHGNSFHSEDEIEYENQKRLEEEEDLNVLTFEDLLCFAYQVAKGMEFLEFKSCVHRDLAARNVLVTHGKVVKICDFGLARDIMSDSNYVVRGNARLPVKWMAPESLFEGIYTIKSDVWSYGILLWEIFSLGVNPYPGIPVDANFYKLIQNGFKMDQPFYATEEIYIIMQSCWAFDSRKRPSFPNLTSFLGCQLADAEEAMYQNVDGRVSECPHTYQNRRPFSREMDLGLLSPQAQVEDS
# UniProt P06241, whole entry, looked up: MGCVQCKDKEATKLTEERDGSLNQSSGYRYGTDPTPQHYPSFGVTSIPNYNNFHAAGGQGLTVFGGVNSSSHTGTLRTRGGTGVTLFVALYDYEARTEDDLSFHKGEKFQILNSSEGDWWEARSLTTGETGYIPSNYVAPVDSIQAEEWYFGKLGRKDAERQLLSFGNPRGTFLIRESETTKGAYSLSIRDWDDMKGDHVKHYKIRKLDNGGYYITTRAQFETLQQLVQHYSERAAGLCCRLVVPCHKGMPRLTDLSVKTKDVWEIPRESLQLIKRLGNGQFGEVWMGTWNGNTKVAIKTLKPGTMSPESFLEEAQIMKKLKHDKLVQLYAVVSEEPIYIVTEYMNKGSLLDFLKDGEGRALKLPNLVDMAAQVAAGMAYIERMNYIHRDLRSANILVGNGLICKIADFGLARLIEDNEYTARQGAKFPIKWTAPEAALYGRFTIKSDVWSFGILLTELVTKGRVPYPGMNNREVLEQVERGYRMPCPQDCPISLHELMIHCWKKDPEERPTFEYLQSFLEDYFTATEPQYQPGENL
# UniProt Q12851: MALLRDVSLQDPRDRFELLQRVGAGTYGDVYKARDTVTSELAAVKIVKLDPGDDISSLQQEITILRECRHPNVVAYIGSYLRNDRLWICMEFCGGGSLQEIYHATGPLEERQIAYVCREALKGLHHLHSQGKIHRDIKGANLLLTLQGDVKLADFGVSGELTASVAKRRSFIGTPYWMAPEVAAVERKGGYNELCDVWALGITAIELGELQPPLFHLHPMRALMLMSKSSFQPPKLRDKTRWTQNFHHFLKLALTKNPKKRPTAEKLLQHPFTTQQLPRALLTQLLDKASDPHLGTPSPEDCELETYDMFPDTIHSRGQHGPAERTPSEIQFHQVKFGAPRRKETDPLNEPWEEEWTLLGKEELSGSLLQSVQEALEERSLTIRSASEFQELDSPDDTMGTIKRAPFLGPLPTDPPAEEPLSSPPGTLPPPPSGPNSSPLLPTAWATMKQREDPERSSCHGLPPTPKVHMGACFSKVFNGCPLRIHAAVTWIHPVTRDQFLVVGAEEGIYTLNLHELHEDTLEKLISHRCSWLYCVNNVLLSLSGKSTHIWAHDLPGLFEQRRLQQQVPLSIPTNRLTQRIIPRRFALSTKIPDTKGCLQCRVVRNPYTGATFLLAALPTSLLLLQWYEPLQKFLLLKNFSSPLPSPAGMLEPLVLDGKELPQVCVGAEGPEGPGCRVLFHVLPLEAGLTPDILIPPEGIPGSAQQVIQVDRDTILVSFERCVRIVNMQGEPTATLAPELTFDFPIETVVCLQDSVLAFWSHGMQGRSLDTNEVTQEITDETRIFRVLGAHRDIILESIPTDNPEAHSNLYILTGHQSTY
# UniProt P08631: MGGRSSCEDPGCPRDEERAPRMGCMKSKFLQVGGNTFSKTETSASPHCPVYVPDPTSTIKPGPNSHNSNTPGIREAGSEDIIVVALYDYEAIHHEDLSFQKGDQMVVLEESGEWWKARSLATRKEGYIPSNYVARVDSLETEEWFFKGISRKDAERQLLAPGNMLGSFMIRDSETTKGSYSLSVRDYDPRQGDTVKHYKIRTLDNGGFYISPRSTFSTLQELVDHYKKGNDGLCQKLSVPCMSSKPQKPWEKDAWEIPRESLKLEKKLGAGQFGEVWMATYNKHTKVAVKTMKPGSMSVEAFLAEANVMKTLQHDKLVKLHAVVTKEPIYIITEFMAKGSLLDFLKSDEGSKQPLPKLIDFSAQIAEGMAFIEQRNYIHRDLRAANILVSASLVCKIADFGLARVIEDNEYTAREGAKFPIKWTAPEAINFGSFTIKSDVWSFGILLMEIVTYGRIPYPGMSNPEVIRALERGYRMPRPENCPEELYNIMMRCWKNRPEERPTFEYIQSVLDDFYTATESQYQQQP
# UniProt P08069, whole entry, looked up: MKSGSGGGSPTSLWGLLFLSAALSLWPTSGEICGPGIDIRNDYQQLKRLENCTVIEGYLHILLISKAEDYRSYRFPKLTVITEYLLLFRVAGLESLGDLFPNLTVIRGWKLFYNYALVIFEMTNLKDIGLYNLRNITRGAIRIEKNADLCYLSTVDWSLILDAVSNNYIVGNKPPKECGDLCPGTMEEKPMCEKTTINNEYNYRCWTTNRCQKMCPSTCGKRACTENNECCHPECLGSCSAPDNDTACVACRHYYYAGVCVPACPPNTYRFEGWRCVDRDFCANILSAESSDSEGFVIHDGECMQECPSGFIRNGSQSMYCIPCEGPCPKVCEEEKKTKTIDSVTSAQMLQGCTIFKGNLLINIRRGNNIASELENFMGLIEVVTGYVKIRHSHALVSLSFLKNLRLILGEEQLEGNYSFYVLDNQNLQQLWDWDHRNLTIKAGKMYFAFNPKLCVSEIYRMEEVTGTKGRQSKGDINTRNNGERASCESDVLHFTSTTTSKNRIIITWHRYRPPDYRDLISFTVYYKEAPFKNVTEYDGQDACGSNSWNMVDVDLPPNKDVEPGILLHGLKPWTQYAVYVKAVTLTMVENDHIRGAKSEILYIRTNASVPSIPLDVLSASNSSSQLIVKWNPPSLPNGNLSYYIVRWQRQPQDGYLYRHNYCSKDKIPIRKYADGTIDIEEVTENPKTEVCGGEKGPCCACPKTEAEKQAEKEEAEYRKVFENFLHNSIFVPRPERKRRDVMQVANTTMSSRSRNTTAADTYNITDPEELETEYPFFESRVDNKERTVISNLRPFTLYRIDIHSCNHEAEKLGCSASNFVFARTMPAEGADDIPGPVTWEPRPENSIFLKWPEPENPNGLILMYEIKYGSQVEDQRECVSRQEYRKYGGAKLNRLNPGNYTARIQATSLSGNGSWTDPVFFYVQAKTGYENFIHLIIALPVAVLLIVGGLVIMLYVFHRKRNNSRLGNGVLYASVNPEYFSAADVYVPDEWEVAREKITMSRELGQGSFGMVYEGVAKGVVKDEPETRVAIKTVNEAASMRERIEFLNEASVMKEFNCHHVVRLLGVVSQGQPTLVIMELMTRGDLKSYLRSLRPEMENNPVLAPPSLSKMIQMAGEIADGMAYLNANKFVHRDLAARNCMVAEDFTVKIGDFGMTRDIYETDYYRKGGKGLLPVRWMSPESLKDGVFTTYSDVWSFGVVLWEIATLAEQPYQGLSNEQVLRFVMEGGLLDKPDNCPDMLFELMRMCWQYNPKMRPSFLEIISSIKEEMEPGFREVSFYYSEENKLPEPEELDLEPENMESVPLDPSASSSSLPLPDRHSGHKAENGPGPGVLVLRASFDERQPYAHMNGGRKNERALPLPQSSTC
# UniProt P24723, whole entry: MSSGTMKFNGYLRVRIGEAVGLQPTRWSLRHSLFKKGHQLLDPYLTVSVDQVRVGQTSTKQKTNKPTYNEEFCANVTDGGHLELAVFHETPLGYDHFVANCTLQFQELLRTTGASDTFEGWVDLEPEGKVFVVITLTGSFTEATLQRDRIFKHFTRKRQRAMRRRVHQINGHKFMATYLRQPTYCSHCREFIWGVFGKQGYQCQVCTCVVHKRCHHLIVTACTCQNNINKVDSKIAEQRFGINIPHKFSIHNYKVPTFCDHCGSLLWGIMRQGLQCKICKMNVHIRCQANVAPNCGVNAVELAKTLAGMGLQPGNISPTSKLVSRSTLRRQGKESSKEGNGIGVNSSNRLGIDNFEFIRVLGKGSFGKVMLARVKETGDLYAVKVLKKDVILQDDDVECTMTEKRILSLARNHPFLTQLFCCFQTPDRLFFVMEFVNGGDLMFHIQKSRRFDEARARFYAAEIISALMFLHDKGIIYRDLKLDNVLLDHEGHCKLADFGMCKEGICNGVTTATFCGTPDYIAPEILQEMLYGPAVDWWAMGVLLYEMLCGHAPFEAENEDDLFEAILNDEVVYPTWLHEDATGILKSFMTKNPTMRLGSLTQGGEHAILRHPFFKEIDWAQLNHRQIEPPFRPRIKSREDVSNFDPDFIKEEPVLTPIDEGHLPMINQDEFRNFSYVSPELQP
# UniProt Q04759: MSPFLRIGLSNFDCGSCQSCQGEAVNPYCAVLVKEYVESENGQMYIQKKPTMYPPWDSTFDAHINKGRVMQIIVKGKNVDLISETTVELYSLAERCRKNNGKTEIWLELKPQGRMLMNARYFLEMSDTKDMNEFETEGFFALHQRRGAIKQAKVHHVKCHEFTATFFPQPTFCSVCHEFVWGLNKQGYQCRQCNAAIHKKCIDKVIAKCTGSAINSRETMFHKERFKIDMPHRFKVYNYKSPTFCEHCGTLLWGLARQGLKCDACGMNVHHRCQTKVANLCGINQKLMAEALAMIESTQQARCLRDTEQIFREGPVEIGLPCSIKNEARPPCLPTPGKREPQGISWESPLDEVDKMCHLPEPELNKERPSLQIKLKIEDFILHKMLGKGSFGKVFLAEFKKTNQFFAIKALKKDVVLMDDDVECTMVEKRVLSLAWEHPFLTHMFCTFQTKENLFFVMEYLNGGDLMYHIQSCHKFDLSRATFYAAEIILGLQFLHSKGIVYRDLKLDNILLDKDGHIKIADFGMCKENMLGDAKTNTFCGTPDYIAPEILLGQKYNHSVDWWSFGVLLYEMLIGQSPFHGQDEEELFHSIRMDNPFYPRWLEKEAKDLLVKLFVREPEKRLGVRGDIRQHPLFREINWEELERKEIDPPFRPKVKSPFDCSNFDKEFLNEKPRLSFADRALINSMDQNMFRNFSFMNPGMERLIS
# For some assays here: What follows is the remainder of the data, with few or none of the strong results. This is a selection; strong and weak results do not stand in their true shares.
# Assays:
# [1] = biological target: Fibroblast growth factor receptor 1 (Homo sapiens) (UniProt P11362); details: at 1 µM
# [2] = biological target: Fibroblast growth factor receptor 1 (Homo sapiens) (UniProt P11362); details: at 10 µM
# [3] = biological target: Fibroblast growth factor receptor 2 (Homo sapiens) (UniProt P21802); details: at 1 µM
# [4] = biological target: Fibroblast growth factor receptor 2 (Homo sapiens) (UniProt P21802); details: at 10 µM
# [5] = biological target: Fibroblast growth factor receptor 3 (Homo sapiens) (UniProt P22607); details: at 1 µM
# [6] = biological target: Fibroblast growth factor receptor 3 (Homo sapiens) (UniProt P22607); details: at 10 µM
# [7] = biological target: Fibroblast growth factor receptor 4 (Homo sapiens) (UniProt P22455); details: at 1 µM
# [8] = biological target: Fibroblast growth factor receptor 4 (Homo sapiens) (UniProt P22455); details: at 10 µM
# [9] = biological target: Tyrosine-protein kinase Fer (Homo sapiens) (UniProt P16591); details: at 1 µM
# [10] = biological target: Tyrosine-protein kinase Fer (Homo sapiens) (UniProt P16591); details: at 10 µM
# [11] = biological target: Tyrosine-protein kinase Fes/Fps (Homo sapiens) (UniProt P07332); details: at 1 µM
# [12] = biological target: Tyrosine-protein kinase Fes/Fps (Homo sapiens) (UniProt P07332); details: at 10 µM
# [13] = biological target: Tyrosine-protein kinase Fgr (Homo sapiens) (UniProt P09769); details: at 1 µM
# [14] = biological target: Tyrosine-protein kinase Fgr (Homo sapiens) (UniProt P09769); details: at 10 µM
# [15] = biological target: Vascular endothelial growth factor receptor 1 (Homo sapiens) (UniProt P17948); details: at 1 µM
# [16] = biological target: Vascular endothelial growth factor receptor 1 (Homo sapiens) (UniProt P17948); details: at 10 µM
# [17] = biological target: Receptor-type tyrosine-protein kinase FLT3 (Homo sapiens) (UniProt P36888); details: at 1 µM
# [18] = biological target: Receptor-type tyrosine-protein kinase FLT3 (Homo sapiens) (UniProt P36888); details: at 10 µM
# [19] = biological target: Vascular endothelial growth factor receptor 3 (Homo sapiens) (UniProt P35916); details: at 1 µM
# [20] = biological target: Vascular endothelial growth factor receptor 3 (Homo sapiens) (UniProt P35916); details: at 10 µM
# [21] = biological target: Macrophage colony-stimulating factor 1 receptor (Homo sapiens) (UniProt P07333); details: at 1 µM
# [22] = biological target: Macrophage colony-stimulating factor 1 receptor (Homo sapiens) (UniProt P07333); details: at 10 µM
# [23] = biological target: Tyrosine-protein kinase Fyn (Homo sapiens) (UniProt P06241); details: at 1 µM
# [24] = biological target: Tyrosine-protein kinase Fyn (Homo sapiens) (UniProt P06241); details: at 10 µM
# [25] = biological target: Mitogen-activated protein kinase kinase kinase kinase 2 (Homo sapiens) (UniProt Q12851); details: at 1 µM
# [26] = biological target: Mitogen-activated protein kinase kinase kinase kinase 2 (Homo sapiens) (UniProt Q12851); details: at 10 µM
# [27] = biological target: G protein-coupled receptor kinase 5 (Homo sapiens) (UniProt P34947); details: at 1 µM
# [28] = biological target: G protein-coupled receptor kinase 5 (Homo sapiens) (UniProt P34947); details: at 10 µM
# [29] = biological target: G protein-coupled receptor kinase 6 (Homo sapiens) (UniProt P43250); details: at 1 µM
# [30] = biological target: G protein-coupled receptor kinase 6 (Homo sapiens) (UniProt P43250); details: at 10 µM
# [31] = biological target: Rhodopsin kinase GRK7 (Homo sapiens) (UniProt Q8WTQ7); details: at 1 µM
# [32] = biological target: Rhodopsin kinase GRK7 (Homo sapiens) (UniProt Q8WTQ7); details: at 10 µM
# [33] = biological target: Glycogen synthase kinase-3 alpha (Homo sapiens) (UniProt P49840); details: at 1 µM
# [34] = biological target: Glycogen synthase kinase-3 alpha (Homo sapiens) (UniProt P49840); details: at 10 µM
# [35] = biological target: Glycogen synthase kinase-3 beta (Homo sapiens) (UniProt P49841); details: at 1 µM
# [36] = biological target: Glycogen synthase kinase-3 beta (Homo sapiens) (UniProt P49841); details: at 10 µM
# [37] = biological target: Homeodomain-interacting protein kinase 1 (Homo sapiens) (UniProt Q86Z02); details: at 1 µM
# [38] = biological target: Homeodomain-interacting protein kinase 1 (Homo sapiens) (UniProt Q86Z02); details: at 10 µM
# [39] = biological target: Homeodomain-interacting protein kinase 2 (Homo sapiens) (UniProt Q9H2X6); details: at 1 µM
# [40] = biological target: Homeodomain-interacting protein kinase 2 (Homo sapiens) (UniProt Q9H2X6); details: at 10 µM
# [41] = biological target: Homeodomain-interacting protein kinase 3 (Homo sapiens) (UniProt Q9H422); details: at 1 µM
# [42] = biological target: Homeodomain-interacting protein kinase 3 (Homo sapiens) (UniProt Q9H422); details: at 10 µM
# [43] = biological target: Serine/threonine-protein kinase haspin (Homo sapiens) (UniProt Q8TF76); details: at 1 µM
# [44] = biological target: Serine/threonine-protein kinase haspin (Homo sapiens) (UniProt Q8TF76); details: at 10 µM
# [45] = biological target: Tyrosine-protein kinase HCK (Homo sapiens) (UniProt P08631); details: at 1 µM
# [46] = biological target: Tyrosine-protein kinase HCK (Homo sapiens) (UniProt P08631); details: at 10 µM
# [47] = biological target: Tyrosine-protein kinase HCK (Homo sapiens) (UniProt P08631); details: at 1 µM; remark: listed apart in the source
# [48] = biological target: Tyrosine-protein kinase HCK (Homo sapiens) (UniProt P08631); details: at 10 µM; remark: listed apart in the source
# [49] = biological target: Insulin-like growth factor 1 receptor (Homo sapiens) (UniProt P08069); details: at 1 µM
# [50] = biological target: Insulin-like growth factor 1 receptor (Homo sapiens) (UniProt P08069); details: at 10 µM
# [51] = biological target: Protein kinase C zeta type (Homo sapiens) (UniProt Q05513); details: at 10 µM
# [52] = biological target: Protein kinase C eta type (Homo sapiens) (UniProt P24723); details: at 1 µM
# [53] = biological target: Protein kinase C eta type (Homo sapiens) (UniProt P24723); details: at 10 µM
# [54] = biological target: Protein kinase C theta type (Homo sapiens) (UniProt Q04759); details: at 1 µM
# [55] = biological target: Protein kinase C theta type (Homo sapiens) (UniProt Q04759); details: at 10 µM
# [56] = biological target: Protein kinase C iota type (Homo sapiens) (UniProt P41743); details: at 1 µM
smiles,measurement,setting,value
O=C1Nc2ccc(-c3cccnc3)cc2/C1=C\c1ccc[nH]1,residual activity,[1],28%
same,residual activity,[2],4%
same,residual activity,[3],49%
same,residual activity,[4],9%
same,residual activity,[5],46%
same,residual activity,[6],7%
same,residual activity,[7],122%
same,residual activity,[8],63%
same,residual activity,[9],97%
same,residual activity,[10],40%
same,residual activity,[11],93%
same,residual activity,[12],20%
same,residual activity,[13],11%
same,residual activity,[14],2%
same,residual activity,[15],2%
same,residual activity,[16],0%
same,residual activity,[17],0%
same,residual activity,[18],1%
same,residual activity,[19],2%
same,residual activity,[20],0%
same,residual activity,[21],42%
same,residual activity,[22],8%
same,residual activity,[23],37%
same,residual activity,[24],6%
same,residual activity,[25],3%
same,residual activity,[26],0%
same,residual activity,[27],76%
same,residual activity,[28],32%
same,residual activity,[29],81%
same,residual activity,[30],34%
same,residual activity,[31],41%
same,residual activity,[32],6%
same,residual activity,[33],12%
same,residual activity,[34],2%
same,residual activity,[35],14%
same,residual activity,[36],8%
same,residual activity,[37],45%
same,residual activity,[38],8%
same,residual activity,[39],8%
same,residual activity,[40],0%
same,residual activity,[41],10%
same,residual activity,[42],0%
same,residual activity,[43],9%
same,residual activity,[44],1%
same,residual activity,[45],40%
same,residual activity,[46],8%
same,residual activity,[47],41%
same,residual activity,[48],8%
same,residual activity,[49],143%
same,residual activity,[50],92%
same,residual activity,[51],74%
same,residual activity,[52],92%
same,residual activity,[53],61%
same,residual activity,[54],28%
same,residual activity,[55],5%
same,residual activity,[56],inactive: 88%
